Assay results: patent US20260242482A1 (ONO PHARMACEUTICAL, published 2026)
Results are given in words; binding and its absence hold for the method and conditions named. Some results given as binding are weak or reduced against the parent protein; the word gives no strength.

What was measured:
[1] = target: E58G; assay: flow cytometry, IIAdL1-CD80 cells expressing the PD-L1 mutant, soluble PD-1-EC; upper graph
[2] = target: E58K/E60K; assay: as above
[3] = target: E58K/A69E; assay: as above
[4] = target: V54E; assay: as above
[5] = target: V54G/E58G; assay: as above
[6] = target: Y56C/C113Y; assay: as above
[7] = target: V54E/E58G/Q63R/E72G/C113Y; assay: as above
[8] = target: Y56C; assay: as above
[9] = target: D26V/Y56F/E58V; assay: as above
[10] = target: Y56F/E58G; assay: as above
[11] = target: Y56W; assay: flow cytometry, IIAdL1-CD80 cells expressing the PD-L1 Y56 point mutant, soluble PD-1-EC; lower graph
[12] = target: Y56S; assay: as above
[13] = target: Y56G; assay: as above

binding [1]: binds | binding [2]: binds | binding [3]: binds | binding [4]: binds | binding [5]: binds | binding [6]: binds | binding [7]: binds | binding [8]: binds | binding [9]: binds | binding [10]: binds | binding [11]: binds | binding [12]: binds | binding [13]: binds
B1: soluble mouse PD-1 extracellular region (PD-1-EC) protein (receptor)
chain: LEVPNGPWRSLTFYPAWLTVSEGANATFTCSLSNWSEDLMLNWNRLSPSNQTEKQAAFCNGLSQPVQDARFQIIQLPNRHDFHMNILDTRRNDSGIYLCGAISLHPKAKIEESPGAELVVTERILETSTRYPSPSPKPEGRFQDYKDDDDK
notes: domain: five-stranded coiled coil domain; Soluble chimeric protein from 293T or Plat-E culture supernatant; also called mouse PD-1-EC; mPD-1; not shown: five-stranded coiled coil domain of cartilage oligomer matrix protein (Terskikh et al. 1997), fused to the C-terminus
